The values below come from patent publication US20260079169A1, “VOLATILE ORGANIC COMPOUNDS AS MARKERS FOR CELLULAR COMMUNICATION” (Technion Research and Development Foundation Limited, priority 2020, published 2026).

Data set [1] concerns A549, H1299, H1975 human lung cancer lines and BEAS-2B normal cell line, each cultured alone. Put plainly: VOCs headspace analysis (ITEX GC-MS) of mono-culture groups (Format-1), bulk cell samples 1×10^4 cells. Particulars: bulk 1 × 10^4 cell. The format is cell-based.
Data set [2] relates to different-cell pairs of BEAS-2B, A549, H1299, H1975 without physical contact under a mutual headspace. The experiment in a line: VOCs headspace analysis (ITEX GC-MS) of different-cell pair co-culture headspace groups (Format-3), bulk cell samples. Format: cell-based, human. Particulars: bulk 1 × 10^4 cell.

Some results come without the dose or concentration used.

In the case of `Oc1ccccc1` [VOC30], the “VOC level in headspace, area under curve (AUC) normalized by STD AUC” value (shortened to “VOC level … (AUC) normalized by STD AUC”) in data set [1] (A (BEAS-2B) mono-culture) came out at 0; in data set [1] (B (A549) mono-culture), 2.177; in data set [1] (C (H1299) mono-culture), 0; in data set [1] (D (H1975) mono-culture), 3.317; in data set [2] (A + B (BEAS-2B + A549)), 5.4575; in data set [2] (A + C (BEAS-2B + H1299)) it was 0. For the same compound, the “VOC level … (AUC) normalized by STD AUC” value in data set [2] (A + D (BEAS-2B + H1975)) was determined as 3.798; in data set [2] (B + C (A549 + H1299)) it was 7.231; in data set [2] (B + D (A549 + H1975)), 5.247; in data set [2] (C + D (H1299 + H1975)), 3.187.
Take `CCCCC(C)CCC(C)CCC` (centres unmarked) [VOC43]: the “VOC level … (AUC) normalized by STD AUC” value stood at 1.462 in data set [1] (A (BEAS-2B) mono-culture); 1.292 in data set [1] (B (A549) mono-culture); 0 in data set [1] (C (H1299) mono-culture); 9.701 in data set [2] (A + B (BEAS-2B + A549)); 0 in data set [2] (A + C (BEAS-2B + H1299)); 0 in data set [2] (A + D (BEAS-2B + H1975)). For the same compound, the figures for the “VOC level … (AUC) normalized by STD AUC” value in data set [2] (B + C (A549 + H1299)), in data set [2] (B + D (A549 + H1975)) and in data set [2] (C + D (H1299 + H1975)) were 0, 3.906 and 0, respectively.
`CCCOC(=O)c1cc(C(F)(F)F)ccc1F` [VOC101]: in data set [1] (A: BEAS-2B mono-culture headspace), the “VOC area under curve (AUC) normalized by STD AUC, A” value amounted to 0. The “VOC area under curve (AUC) normalized by STD AUC, B” value in data set [1] (B: A549 mono-culture headspace) is on record as 1. Also, the “VOC area under curve (AUC) normalized by STD AUC, C” value in data set [1] (C: H1299 mono-culture headspace) came to 6.0138. Moreover, the “VOC area under curve (AUC) normalized by STD AUC, D” value in data set [1] (D: H1975 mono-culture headspace) amounted to 0. Moreover, the “VOC area under curve (AUC) normalized by STD AUC, B + C” value in data set [2] (A549 + H1299) was determined as 2.071. Moreover, the “VOC area under curve (AUC) normalized by STD AUC, B + D” value in data set [2] (A549 + H1975) came to 0. For the same compound, in data set [2] (BEAS-2B + A549), the “VOC area under curve (AUC) normalized by STD AUC, A + B” value is listed as 0. Also, in data set [2] (BEAS-2B + H1299), the “VOC area under curve (AUC) normalized by STD AUC, A + C” value was found to be 2.164. Besides, in data set [2] (BEAS-2B + H1975), the “VOC area under curve (AUC) normalized by STD AUC, A + D” value is 0. Moreover, the “VOC area under curve (AUC) normalized by STD AUC, C + D” value in data set [2] (H1299 + H1975) amounted to 2.133.
Regarding `CCCCCCCCCC` [VOC14], the “VOC level … (AUC) normalized by STD AUC” value in data set [1] (A (BEAS-2B) mono-culture) amounted to 0; in data set [1] (B (A549) mono-culture), 0; in data set [1] (C (H1299) mono-culture) it was 0; in data set [1] (D (H1975) mono-culture) it was 0; in data set [2] (A + B (BEAS-2B + A549)) it was 7.483; in data set [2] (A + C (BEAS-2B + H1299)), 0. The “VOC level … (AUC) normalized by STD AUC” value in data set [2] (A + D (BEAS-2B + H1975)), in data set [2] (B + C (A549 + H1299)), in data set [2] (B + D (A549 + H1975)) and in data set [2] (C + D (H1299 + H1975)) was 0 each time.
`CCCC=C(C)CC` [VOC37]: the “VOC level … (AUC) normalized by STD AUC” value turned out to be 2.108 in data set [1] (A (BEAS-2B) mono-culture); 0 in data set [1] (B (A549) mono-culture); 0 in data set [1] (C (H1299) mono-culture); 0 in data set [1] (D (H1975) mono-culture); 2.322 in data set [2] (A + B (BEAS-2B + A549)); 0 in data set [2] (A + C (BEAS-2B + H1299)). In addition, the “VOC level … (AUC) normalized by STD AUC” value in data set [2] (A + D (BEAS-2B + H1975)), in data set [2] (B + C (A549 + H1299)), in data set [2] (B + D (A549 + H1975)) and in data set [2] (C + D (H1299 + H1975)) was 0 in each case.
Consider `CCCC(C)CCCCC(C)CC` (centres unmarked) [VOC10], for which the “VOC level … (AUC) normalized by STD AUC” value worked out at 0 in data set [1] (A (BEAS-2B) mono-culture); 0 in data set [1] (B (A549) mono-culture); 2.6495 in data set [1] (C (H1299) mono-culture); 0 in data set [1] (D (H1975) mono-culture); 0 in data set [2] (A + B (BEAS-2B + A549)); 7.939 in data set [2] (A + C (BEAS-2B + H1299)). In addition, the “VOC level … (AUC) normalized by STD AUC” value in data set [2] (A + D (BEAS-2B + H1975)), in data set [2] (B + C (A549 + H1299)), in data set [2] (B + D (A549 + H1975)) and in data set [2] (C + D (H1299 + H1975)) was 0 each time.
